According to the supplement of paper PMC8285479:
± gives the standard deviation of the averaged measurements. Shown are results outside the selection of lowest values, which stands elsewhere.

Test system: NCI-H1944
Experiment: normalised cell viability (NPI; 0 = phenylarsine oxide control, 1 = DMSO control) (fraction of DMSO control); NCI-H1944 is a non-small cell lung cancer line; higher = more viable cells (less compound toxicity)
Conditions: 6 days
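Also: CTB read-out in 384-well plates, triplicate wells, NPI normalised per plate against 1 µM phenylarsine oxide (0) and 0.1% DMSO (1) controls.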

Cc1c(C(=O)NN2CCCCC2)nn(-c2ccc(Cl)cc2Cl)c1-c1ccc(I)cc1
normalised cell viability (glucocorticoid arm: hydrocortisone 2.75 uM co-treatment, compound 1 µM): 0.9953 ± 0.0045 | normalised cell viability (glucocorticoid arm: hydrocortisone 2.75 uM co-treatment, compound 5 µM): 1.001 ± 0.0082 | normalised cell viability (glucocorticoid arm: hydrocortisone 2.75 uM pre-treated 2 days and continued, compound 1 µM): 0.995 ± 0.025 | normalised cell viability (glucocorticoid arm: hydrocortisone 2.75 uM pre-treated 2 days and continued, compound 5 µM): 0.976 ± 0.021 | normalised cell viability (glucocorticoid arm: vehicle, compound 1 µM): 0.9997 ± 0.0093 | normalised cell viability (glucocorticoid arm: vehicle, compound 5 µM): 1.007 ± 0.0058
